# Results of single-concentration screens

Data taken from ChEMBL document CHEMBL3988442, “University of Dundee, Small-Polar-MMV Screening Library” (2021).

T. brucei: 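Whole-parasite assay of Trypanosoma brucei over 72 hours; the read-out is not stated. Concentration: 30 µM. Higher reads as stronger inhibition (inferred: compounds with an IC50 in retests scored well above the rest). Values scatter widely below zero; nearly all retest evidence comes from the higher of the two concentrations used. About 64,000 compounds were tested under these conditions; 1.5% (about 940) showed 50% or more at least once.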
Leishmania in macrophages: 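Cell assay of Leishmania donovani living inside macrophages; the read-out is not stated. Compounds at 30 µM. Direction is inferred from retests: higher values go with stronger inhibition. About 69,000 compounds were tested under these conditions; 1.5% (about 1,000) showed 50% or more at least once.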
Toxoplasma: 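Assay of Toxoplasma gondii numbers, read through their beta-galactosidase reporter with a colour substrate. Tested at 10 µM. Higher reads as fewer parasites (inferred from which compounds were picked for retests). About 67,000 compounds were tested under these conditions; 0.38% (about 260) showed 50% or more at least once.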

Results are given as percent effect.
The controls that fix the scale are not given in the record; negative values are as filed.
Compounds were drawn at random from those tested, without regard to their results.
Two or more numbers in one place are separate tests of the same structure; such repeats can differ widely.
A dash means the value is not listed here; it may have been measured.

compound	T. brucei	Leishmania in macrophages	Toxoplasma
CCc1cc(N2CCN(c3cnccn3)CC2)n2nc(C)c(C)c2n1	-45.66	-3.49	-9.566
Cc1n[nH]c(C)c1C1CCCN1C(=O)CNC(=O)C(C)(C)C (stereo not shown)	-62.42	5.083	3.503
Cc1nc(CN2CCCN(Cc3nc4ccccc4o3)CC2)no1	-14.19	28.74	-13.61
OCc1cccc(OCc2ccon2)c1	-56.68	13.1	-5.637
Cc1nn(C)c(C)c1NC(=O)CNc1ccc(F)c(C(F)(F)F)c1	-18.31	-3.673	0.6882
NC(=O)C1Cc2ccccc2CN1CCC(=O)N1CCc2ccccc21 (stereo not shown)	-34.97	-19.23	1.49
CCN1CCC2(CC1)CC(NCc1ccncc1)c1ccccc1O2.O=C(O)C(F)(F)F.O=C(O)C(F)(F)F.O=C(O)C(F)(F)F (stereo not shown)	1.43	25.95	-5.849
O=C(O)COc1ccc(CN2CCCC(CCc3ccccc3)C2)cc1 (stereo not shown)	-19.66	-4.685	17.06
O=C(O)C(F)(F)F.[H][C@@]12CCN(Cc3ccc4c(c3)OCO4)C[C@]1(C(=O)NC(C)C)CCO2	-22.07	20.8	14.69
COCc1ccccc1C(=O)NCC(O)c1ccc(Cl)s1 (stereo not shown)	-2.328	8.805	9.7
Cc1csc(NC(=O)CN2CCc3nn(C)c(=O)cc3C2)n1	-15.12	4.881	13.33
O=C1C(n2nnc(-c3ccsc3)n2)CCN1CC(F)(F)F (stereo not shown)	9.302	14.4	-6.525
[H][C@]12CCC[C@@]1(COCC1CCOCC1)CN(S(=O)(=O)N(C)C)C2	-60.66	-26.62	2.336
CCN(Cc1cnc(-c2ccccn2)nc1)C1CCS(=O)(=O)C1 (stereo not shown)	-48.71	19.63	-14.23
CN(CCCc1cnn(C)c1)Cc1cc2n(n1)CCCN(C)C2	-38.37	12.6	0.1698
[H][C@@]12CCN(Cc3cccs3)[C@]1([H])CC[C@H](COCC1CC1)O2	-8.69	14.6	3.693
O=C(C1CN(CC2CC2)CC12CCOCC2)N1CCCC1 (stereo not shown)	-30.66	9.279	-9.863
Cc1cc(NC(=O)CNc2cccc(C(=O)N3CCCC(O)C3)c2)no1 (stereo not shown)	-22.43	32.41	-1.253
CCN(Cc1ccoc1)C(=O)C1CN(C(=O)OC(C)(C)C)C1	-25.5	-2.367	14.08
CCOCC(=O)N1CCC2(CC1)COC(COCc1ccccn1)C2.O=C(O)C(F)(F)F (stereo not shown)	-87.36	-28.6	-4.601
Cc1c[nH]nc1C1CCCN(c2cnccn2)C1 (stereo not shown)	14.64	19.52	-13.97
CC(C)n1ncc2c1NC(=O)CC21C(=O)Nc2c(Br)cc(Cl)cc21 (stereo not shown)	-35.75	14.67	2.419
O=C(O)c1cccc2c(Br)cccc12	-30.86	25.64	0.336
COc1ccc(NC(=O)c2ccc(CN3CC[C@H](O)C3)cc2)c(OC)n1	0.702	12.27	0.6705
COc1ccccc1N1CC(NC(=O)Cn2cc(C(C)C)nn2)CC1=O (stereo not shown)	-11.87	-4.218	-6.1
COc1ccc2c(c1)nc1n2[C@@H](CNCc2ncccc2C)COC1	-8.867	-25.65	-8.417
Cl.O=C(Nc1ccccn1)c1cncc(C2CCNCC2)n1	-	-8.875	-
COc1ccc(-n2ccc(C(=O)NCCN3CCCCC3C)n2)cc1 (stereo not shown)	26.43	22.74	2.814
CCC(CO)N(Cc1ccc(C(=O)O)cc1)Cc1ccsc1 (stereo not shown)	-4.984	-11.61	-8.862
c1ccc(-c2nc(CN3CCCC3Cn3cccn3)no2)cc1 (stereo not shown)	-25.34	-12.79	-11.18
CC(C)(O)CCc1cccc(C(=O)N2CCC3(CCOCC3)CC2)c1	-34.47	1.265	2.984
CC[C@@H](CO)Nc1cc(-c2cn[nH]c2)ncn1	-17.33	14.76 and 25.05	-7.378
CCOc1ccnc(N2CCN(CCOC)CC2)n1	5.997	-4.605	-0.5882
COc1ccccc1CN1CCC(c2nn(CCN)c3nccnc23)C1 (stereo not shown)	99.59	22.84	22.68
CC(C)N1CC2(CCCN(c3ncc(Cl)cc3F)C2)CCC1=O (stereo not shown)	-22.71	-3.542	-30.6
[H][C@@]12CCN(C(=O)C3CCCC3)[C@]1([H])C(=O)N(c1ccc(F)cc1)C(=O)N2	-21.27	-15.54	-11.4
COCC(C)NC(=O)c1cncc(Br)c1 (stereo not shown)	-33.53	13.96	-7.852
CC(C)(C)[S+]([O-])CCNC(=O)c1ccc(Cl)c2cccnc12 (stereo not shown)	-	16.13	-7.315
O=C(O)C(F)(F)F.O=C1COC2(CCN(C(=O)c3ccco3)CC2)CN1Cc1ccccn1	3.406	16.35	2.746
CC1CCCN(CCNC(=O)c2ccn(-c3ccccc3)n2)C1 (stereo not shown)	26.82	-3.451	3.07
Cc1cnn(CC2CCCN2C(=O)CCc2ccc3c(c2)OCO3)c1 (stereo not shown)	-	-20.28	17.01
c1cnnc(-c2noc(CCN3CCCO3)n2)c1	-18.57	-2.278	8.33
COCCn1c2c(ccc1=O)CC(NS(C)(=O)=O)CC2 (stereo not shown)	-56.59	-24.81	1.165
COc1c(CNCc2ccccc2Cn2cccn2)c(C)nn1C	-10.69	3.535	-35.31
CN(CCn1cccn1)S(=O)(=O)c1cccc(Cl)c1C#N	16.47	14.09	-0.3743
Cc1cc(C(=O)NCCC2CN(C)CCO2)c2cccc(C)c2n1 (stereo not shown)	-18.19	45.19	14.81
c1cnnc(N2CCCC(NCc3ccc(-n4cccn4)cc3)C2)c1 (stereo not shown)	-22.81	-22.53	-6.556
Cc1cccc(SC2CCN(C(=O)CCNS(C)(=O)=O)CC2)c1	-9.54	25.63	-
CC(=O)N1CCCN(C(=O)Cc2ccc3c(c2)OCO3)CC1	-33.43	13.69	-7.029
Cc1cnn(C2CN(Cc3nnc(-c4ccccc4Cl)o3)C2)c1	-55.33	-14.2	7.493

The last 3 entries again:

compound	T. brucei	Leishmania in macrophages	Toxoplasma
Cc1cccc(SC2CCN(C(=O)CCNS(C)(=O)=O)CC2)c1	-9.54	25.63	-
CC(=O)N1CCCN(C(=O)Cc2ccc3c(c2)OCO3)CC1	-33.43	13.69	-7.029
Cc1cnn(C2CN(Cc3nnc(-c4ccccc4Cl)o3)C2)c1	-55.33	-14.2	7.493